Reference: US4933104A, “Anthraquinone derivative as a dichroic dye for a liquid-crystal material, liquid-crystal material and an electrooptical device” (priority 1986, dated 1990)
For at least one compound, name, drawing or mass did not settle the structure.

How the values were obtained:
[1] = negative dichroism S in a liquid-crystalline mixture; format: physicochemical; settings: liquid-crystalline mixture ZK-807
Experimental: (§1) Table 1 given below lists the values of negative dichroism of the anthraquinone derivative of general formula /1/ for examples 1-30 in a liquid-crystalline mixture ZK-807; Table 2 illustrates physico-chemical characteristics, and Table 3--limiting solubility in liquid-crystalline mixtures (ZK-807, ZLI-1840, 3010, SP-586, ZK-1282) at 20° C.

[2] = λmax of the long-wave absorption band of the dye; format: physicochemical; settings: Table 1 / Examples; several values = several maxima
Experimental: as §1

**Q.** For CCCCCCCCNc1cc(CCCC)c(NC(=O)c2ccc(-c3ccc(CCCCCCCC)cc3)cc2)c2c1C(=O)c1ccccc1C2=O [Compound 1], which “negative dichroism S” value [1] is on record?
**A.** -0.21

**Q.** What about the λmax [2] of the same compound?
**A.** 555 nm
